Laboratory results as given in patent publication US20210308231A1, “COLLAGEN HYDROLYSATE FOR USE WITH SKIN DISORDERS AND INTESTINAL DISORDERS” (GELITA AG, priority 2018, published 2021).
For at least one compound, name, drawing or mass did not settle the structure.

What was measured:
Type in all cases: cell-based
[1] = tested on: primary human fibroblasts; assay: Cell tests with fibroblasts: biosynthesis of matrix proteins; conditions: 0.05 mg/ml dexamethasone alone, seven days, in relation to control batch
[2] = tested on: human chondrocytes (cartilage cells); assay: Cell tests with chondrocytes: biosynthesis of matrix proteins; conditions: glucocorticoid (dexamethasone) alone
[3] = tested on: human osteoblasts (bone cells); assay: Cell tests with osteoblasts: biosynthesis of matrix proteins; conditions: glucocorticoid (dexamethasone) alone

## C[C@@H]1C[C@H]2[C@@H]3CCC4=CC(=O)C=C[C@]4(C)[C@@]3(F)[C@@H](O)C[C@]2(C)[C@@]1(O)C(=O)CO [glucocorticoid, dexamethasone]
[1]
  biosynthesis of collagen type I: significantly reduced
  biosynthesis of proteoglycans: significantly reduced
[2]
  biosynthesis of collagen type I: reduction in biosynthesis
  biosynthesis of proteoglycans: reduction in biosynthesis
[3]
  biosynthesis of collagen type I: reduction of the biosynthesis
  biosynthesis of proteoglycans: reduction of the biosynthesis
